The assay concerns the target T1, T7-DHX34 p.Arg897Cys (human) (UniProt Q14147).
T1 sequence: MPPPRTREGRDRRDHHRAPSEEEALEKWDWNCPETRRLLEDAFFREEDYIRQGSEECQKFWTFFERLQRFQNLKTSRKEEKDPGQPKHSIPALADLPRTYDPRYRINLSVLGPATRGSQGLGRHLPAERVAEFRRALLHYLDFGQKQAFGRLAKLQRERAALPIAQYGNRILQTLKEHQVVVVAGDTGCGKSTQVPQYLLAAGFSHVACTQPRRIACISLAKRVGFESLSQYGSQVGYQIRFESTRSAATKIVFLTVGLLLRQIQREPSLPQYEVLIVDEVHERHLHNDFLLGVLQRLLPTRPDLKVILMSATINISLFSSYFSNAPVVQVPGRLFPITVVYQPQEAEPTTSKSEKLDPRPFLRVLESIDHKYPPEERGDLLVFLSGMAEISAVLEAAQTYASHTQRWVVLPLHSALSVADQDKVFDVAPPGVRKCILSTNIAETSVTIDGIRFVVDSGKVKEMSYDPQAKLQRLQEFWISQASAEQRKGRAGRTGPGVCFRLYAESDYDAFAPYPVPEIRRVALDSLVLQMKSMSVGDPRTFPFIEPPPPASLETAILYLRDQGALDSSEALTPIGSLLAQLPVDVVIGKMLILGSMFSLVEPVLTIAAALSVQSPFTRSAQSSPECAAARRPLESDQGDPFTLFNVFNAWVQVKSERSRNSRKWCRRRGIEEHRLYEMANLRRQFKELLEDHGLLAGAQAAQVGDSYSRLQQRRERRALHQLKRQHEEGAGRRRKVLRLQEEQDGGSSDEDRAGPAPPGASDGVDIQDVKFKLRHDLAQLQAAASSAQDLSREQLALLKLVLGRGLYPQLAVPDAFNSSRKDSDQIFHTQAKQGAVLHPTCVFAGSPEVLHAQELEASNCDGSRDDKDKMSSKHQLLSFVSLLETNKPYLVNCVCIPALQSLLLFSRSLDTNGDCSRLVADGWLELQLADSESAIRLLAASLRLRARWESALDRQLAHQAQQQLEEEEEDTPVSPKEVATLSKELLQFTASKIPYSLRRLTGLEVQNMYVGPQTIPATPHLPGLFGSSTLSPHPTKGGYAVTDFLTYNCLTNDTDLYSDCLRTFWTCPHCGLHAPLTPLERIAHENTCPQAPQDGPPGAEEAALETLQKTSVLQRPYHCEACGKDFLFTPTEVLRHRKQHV
The assay can be described thus: co-IP; HEK293T cells co-transfected with T7-DHX34 (wild type or variant) and FLAG-UPF1; anti-T7 immunoprecipitates probed for UPF1.

The values that follow come from paper PMC7042299.

No constants are given. Whether binding was seen depends on the method and setting. In cells and extracts the contact can be indirect. Some entries that bind do so weakly or less than the wild type. Where a sequence is shown, tags or fusion partners need not be part of it.

B1: FLAG-UPF1 (pcIneo-FLAG-UPF1) (protein, UniProt Q92900 1-1129)
chain: MSVEAYGPSSQTLTFLDTEEAELLGADTQGSEFEFTDFTLPSQTQTPPGGPGGPGGGGAGGPGGAGAGAAAGQLDAQVGPEGILQNGAVDDSVAKTSQLLAELNFEEDEEDTYYTKDLPIHACSYCGIHDPACVVYCNTSKKWFCNGRGNTSGSHIVNHLVRAKCKEVTLHKDGPLGETVLECYNCGCRNVFLLGFIPAKADSVVVLLCRQPCASQSSLKDINWDSSQWQPLIQDRCFLSWLVKIPSEQEQLRARQITAQQINKLEELWKENPSATLEDLEKPGVDEEPQHVLLRYEDAYQYQNIFGPLVKLEADYDKKLKESQTQDNITVRWDLGLNKKRIAYFTLPKTDSGNEDLVIIWLRDMRLMQGDEICLRYKGDLAPLWKGIGHVIKVPDNYGDEIAIELRSSVGAPVEVTHNFQVDFVWKSTSFDRMQSALKTFAVDETSVSGYIYHKLLGHEVEDVIIKCQLPKRFTAQGLPDLNHSQVYAVKTVLQRPLSLIQGPPGTGKTVTSATIVYHLARQGNGPVLVCAPSNIAVDQLTEKIHQTGLKVVRLCAKSREAIDSPVSFLALHNQIRNMDSMPELQKLQQLKDETGELSSADEKRYRALKRTAERELLMNADVICCTCVGAGDPRLAKMQFRSILIDESTQATEPECMVPVVLGAKQLILVGDHCQLGPVVMCKKAAKAGLSQSLFERLVVLGIRPIRLQVQYRMHPALSAFPSNIFYEGSLQNGVTAADRVKKGFDFQWPQPDKPMFFYVTQGQEEIASSGTSYLNRTEAANVEKITTKLLKAGAKPDQIGIITPYEGQRSYLVQYMQFSGSLHTKLYQEVEIASVDAFQGREKDFIILSCVRANEHQGIGFLNDPRRLNVALTRARYGVIIVGNPKALSKQPLWNHLLNYYKEQKVLVEGPLNNLRESLMQFSKPRKLVNTINPGARFMTTAMYDAREAIIPGSVYDRSSQGRPSSMYFQTHDQIGMISAGPSHVAAMNIPIPFNLVMPPMPPPGYFGQANGPAAGRGTPKGKTGRGGRQKNRFGLPGPSQTNLPNSQASQDVASQPFSQGALTQGYISMSQPSQMSQPGLSQPELSQDSYLGDEFKSQIDVALSQDSTYQGERAYQHGGVTGLSQY
Consider B1, for which the binding result is recorded as “binds”.
